From paper PMC5910412
These are yes or no findings as the source states them, for the method shown. Binding seen in cells or lysates may run through a third protein. Here binding means that the protein was enriched with, or labelled near, the bait; the list need not be complete.

The chains behind the UniProt entries cited, without tags or fusion partners.
UniProt P46940: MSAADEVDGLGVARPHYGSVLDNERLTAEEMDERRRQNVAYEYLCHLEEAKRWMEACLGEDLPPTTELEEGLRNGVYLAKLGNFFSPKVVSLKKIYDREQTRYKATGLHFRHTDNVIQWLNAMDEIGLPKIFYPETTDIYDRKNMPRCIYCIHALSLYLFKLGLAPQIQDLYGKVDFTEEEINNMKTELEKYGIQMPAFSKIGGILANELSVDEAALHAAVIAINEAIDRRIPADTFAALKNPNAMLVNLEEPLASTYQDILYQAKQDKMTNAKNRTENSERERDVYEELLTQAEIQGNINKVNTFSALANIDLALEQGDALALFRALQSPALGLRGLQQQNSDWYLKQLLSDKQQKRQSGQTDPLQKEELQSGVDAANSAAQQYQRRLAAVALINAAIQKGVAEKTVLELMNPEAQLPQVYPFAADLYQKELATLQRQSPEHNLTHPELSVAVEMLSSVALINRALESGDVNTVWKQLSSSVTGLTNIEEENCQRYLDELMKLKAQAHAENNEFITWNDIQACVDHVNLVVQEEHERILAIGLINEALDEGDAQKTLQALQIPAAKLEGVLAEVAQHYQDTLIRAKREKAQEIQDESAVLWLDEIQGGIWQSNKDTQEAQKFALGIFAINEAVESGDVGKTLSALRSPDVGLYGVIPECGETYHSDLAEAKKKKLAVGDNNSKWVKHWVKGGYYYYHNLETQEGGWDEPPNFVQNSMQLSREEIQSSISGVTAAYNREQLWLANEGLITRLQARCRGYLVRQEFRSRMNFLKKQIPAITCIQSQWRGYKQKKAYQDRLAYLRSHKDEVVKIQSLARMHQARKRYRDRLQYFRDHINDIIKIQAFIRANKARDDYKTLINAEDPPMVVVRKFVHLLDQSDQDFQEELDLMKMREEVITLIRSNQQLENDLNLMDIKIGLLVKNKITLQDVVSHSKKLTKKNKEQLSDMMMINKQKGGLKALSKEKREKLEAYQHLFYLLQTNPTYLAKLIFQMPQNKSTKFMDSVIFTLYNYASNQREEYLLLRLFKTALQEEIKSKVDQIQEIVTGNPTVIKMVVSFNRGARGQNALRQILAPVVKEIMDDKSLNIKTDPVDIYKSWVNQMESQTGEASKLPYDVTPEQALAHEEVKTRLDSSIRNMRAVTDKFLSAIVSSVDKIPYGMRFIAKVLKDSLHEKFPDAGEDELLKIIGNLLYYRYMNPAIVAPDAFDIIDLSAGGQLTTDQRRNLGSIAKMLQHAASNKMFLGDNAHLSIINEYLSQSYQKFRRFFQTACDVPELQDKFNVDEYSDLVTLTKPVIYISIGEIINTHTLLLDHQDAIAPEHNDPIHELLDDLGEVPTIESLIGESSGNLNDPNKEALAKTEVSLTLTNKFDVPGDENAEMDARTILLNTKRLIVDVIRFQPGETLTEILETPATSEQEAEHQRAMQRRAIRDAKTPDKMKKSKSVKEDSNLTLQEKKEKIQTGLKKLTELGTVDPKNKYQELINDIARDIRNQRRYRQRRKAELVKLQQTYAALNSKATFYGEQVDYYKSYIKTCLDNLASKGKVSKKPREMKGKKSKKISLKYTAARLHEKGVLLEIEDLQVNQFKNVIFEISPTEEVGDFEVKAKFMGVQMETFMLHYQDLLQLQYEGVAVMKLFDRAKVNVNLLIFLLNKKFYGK

Molecular target: T1, MISP (mitotic interactor and substrate of Plk1), bait of the co-IP/mass spectrometry screen (UniProt Q8IVT2)
T1 sequence: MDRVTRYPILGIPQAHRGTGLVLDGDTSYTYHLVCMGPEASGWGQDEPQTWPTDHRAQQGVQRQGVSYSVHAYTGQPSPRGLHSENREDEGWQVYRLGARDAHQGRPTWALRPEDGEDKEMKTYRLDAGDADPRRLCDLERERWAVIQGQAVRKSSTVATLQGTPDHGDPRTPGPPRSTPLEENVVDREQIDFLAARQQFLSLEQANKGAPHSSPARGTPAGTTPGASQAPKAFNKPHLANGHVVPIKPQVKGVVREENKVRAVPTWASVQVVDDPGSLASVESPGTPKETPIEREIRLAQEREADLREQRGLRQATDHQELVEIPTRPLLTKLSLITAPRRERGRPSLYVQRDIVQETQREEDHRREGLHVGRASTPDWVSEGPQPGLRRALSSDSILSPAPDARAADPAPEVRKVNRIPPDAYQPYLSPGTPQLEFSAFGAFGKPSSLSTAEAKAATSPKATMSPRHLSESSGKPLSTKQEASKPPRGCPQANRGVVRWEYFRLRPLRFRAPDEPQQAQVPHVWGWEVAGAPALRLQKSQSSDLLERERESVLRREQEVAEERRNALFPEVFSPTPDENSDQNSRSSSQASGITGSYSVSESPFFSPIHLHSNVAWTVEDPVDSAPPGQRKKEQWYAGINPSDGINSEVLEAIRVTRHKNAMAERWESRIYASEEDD
Experiment: affinity purification with mass spectrometry; co-immunoprecipitation followed by mass spectrometry with MISP as bait in mitotically blocked HeLa cells

binding: binds
Substance: endogenous IQGAP1 (from UniProt P46940 1-1657)
